We go through 1 molecule from publication PMC12529230, “The Lrs14‐Like AbfR1 Homolog From Metallosphaera sedula Is a Nucleoid‐Organizing Protein” (MicrobiologyOpen, 2025).

Results are given in words; binding and its absence hold for the method and conditions named. Some binding calls cover weakened binding; strength is not graded here.

The target in this test is AbfR1 Ms (endogenous, M. sedula cell extract) (Metallosphaera sedula (endogenous in M. sedula DSM5348)) (UniProt A4YIR2). Description: SDS-PAGE and Western blot (SDS-resistant oligomers); M. sedula cell extracts from four growth phases, without and with 100 mM DTT, anti-AbfR1 Ms immunoblot. On the technique in general: A western blot detects proteins with antibodies after separation by electrophoresis.

B1: AbfR1 Ms (recombinant, C-terminal His-tag) (natural protein, Metallosphaera sedula, UniProt A4YIR2 1-115, looked up)
chain: MITELAERNILLKRFLMVGYGLSEADVEAFIRIIKGSEGRDVDYIASELGISKSRASLILKRLSDAGLVTKQKSTGSKGGRPKYVYRVDRNEVIEKMKIRASELCSDLSSIISGL
notes: 115 amino acids, estimated MW 12.7 kDa; codon-optimized synthetic gene fragment (446 bp) cloned NdeI/XhoI into pET24a; No tag cleavage is described; A disulfide bridge between the two chains is proposed (C105, from an AlphaFold model and DTT sensitivity); also called Lrs14-like AbfR1 homolog from Metallosphaera sedula; HhcR; source: E. coli Rosetta (DE3), pET24a; purified (heat treatment 70°C, …)
With B1, the binding entry is “binds”.
